Data published in article doi:10.1101/2024.05.08.592949.
Where two headings read alike, the source gives them in different places. Results are given in words; binding and its absence hold for the method and conditions named. Binding seen in cells or lysates may run through a third protein. Some binding calls cover weakened binding; strength is not graded here. Where a sequence is shown, tags or fusion partners need not be part of it. Each block holds one binder with its values, some of them ahead of it.

Experiments:
[1] = biological target: T1, PLCXD2-FLAG (full-length mouse PLCXD2 with a C-terminal FLAG-tag) (mouse) (UniProt B2RXA1); assay: co-IP
T1 sequence: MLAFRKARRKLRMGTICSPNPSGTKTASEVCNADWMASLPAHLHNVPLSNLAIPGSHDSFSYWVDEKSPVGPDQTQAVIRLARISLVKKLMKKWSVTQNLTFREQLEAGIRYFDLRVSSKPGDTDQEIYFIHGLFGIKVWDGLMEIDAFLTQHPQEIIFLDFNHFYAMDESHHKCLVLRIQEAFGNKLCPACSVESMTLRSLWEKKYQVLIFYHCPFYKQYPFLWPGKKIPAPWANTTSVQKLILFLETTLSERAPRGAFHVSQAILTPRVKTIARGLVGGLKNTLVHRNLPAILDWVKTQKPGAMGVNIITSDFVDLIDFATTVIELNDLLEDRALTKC

[2] = biological target: T2, HA-GPR158 (full-length mouse GPR158 with an N-terminal HA-tag) (mouse) (UniProt Q8C419); assay: co-IP
T2 sequence: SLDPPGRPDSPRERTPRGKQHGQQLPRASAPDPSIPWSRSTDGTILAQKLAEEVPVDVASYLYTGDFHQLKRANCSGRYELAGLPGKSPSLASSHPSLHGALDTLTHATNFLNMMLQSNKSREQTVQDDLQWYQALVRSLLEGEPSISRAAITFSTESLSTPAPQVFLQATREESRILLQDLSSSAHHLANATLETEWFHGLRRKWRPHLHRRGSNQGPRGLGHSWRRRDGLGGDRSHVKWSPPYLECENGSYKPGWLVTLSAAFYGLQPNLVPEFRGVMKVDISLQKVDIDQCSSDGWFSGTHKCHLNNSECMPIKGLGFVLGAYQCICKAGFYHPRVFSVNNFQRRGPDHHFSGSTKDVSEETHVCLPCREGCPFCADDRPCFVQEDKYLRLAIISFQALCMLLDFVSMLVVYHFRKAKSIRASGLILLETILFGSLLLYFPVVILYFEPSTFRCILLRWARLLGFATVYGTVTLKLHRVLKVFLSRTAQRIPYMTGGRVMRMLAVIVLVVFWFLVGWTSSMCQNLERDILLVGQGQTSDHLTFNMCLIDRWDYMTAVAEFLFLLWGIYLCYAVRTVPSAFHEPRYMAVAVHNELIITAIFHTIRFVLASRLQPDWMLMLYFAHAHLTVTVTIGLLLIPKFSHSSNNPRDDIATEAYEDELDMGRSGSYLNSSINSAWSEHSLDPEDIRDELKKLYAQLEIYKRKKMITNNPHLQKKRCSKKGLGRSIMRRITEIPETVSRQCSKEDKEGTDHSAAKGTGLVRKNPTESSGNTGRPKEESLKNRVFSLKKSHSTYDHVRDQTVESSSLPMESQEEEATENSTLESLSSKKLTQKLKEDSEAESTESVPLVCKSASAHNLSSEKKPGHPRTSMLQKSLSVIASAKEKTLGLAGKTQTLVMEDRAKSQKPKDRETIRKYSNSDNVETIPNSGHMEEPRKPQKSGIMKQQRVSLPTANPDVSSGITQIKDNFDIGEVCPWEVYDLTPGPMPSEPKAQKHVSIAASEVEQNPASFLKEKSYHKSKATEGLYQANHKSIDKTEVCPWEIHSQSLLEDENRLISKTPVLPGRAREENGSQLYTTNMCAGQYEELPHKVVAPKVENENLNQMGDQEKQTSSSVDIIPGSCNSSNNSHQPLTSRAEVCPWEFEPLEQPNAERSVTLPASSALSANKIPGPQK

[3] = biological target: T3, GPR158-CFAST (full-length mouse GPR158 with an N-terminal HA-tag and a C-terminal CFAST11-tag) (mouse) (UniProt Q8C419); assay: split reporter
T3 sequence: T2 sequence

[4] = biological target: T3, GPR158-CFAST (full-length mouse GPR158 with an N-terminal HA-tag and a C-terminal CFAST11-tag) (mouse); assay: split reporter; remark: listed apart in the source

- binding [1]: binds
B1: HA-GPR158 (full-length mouse GPR158 with an N-terminal HA-tag) (receptor, UniProt Q8C419 25-1200)
chain: T2 sequence

- binding [2]: binds
B2: PLCXD2-FLAG (full-length mouse PLCXD2 with a C-terminal FLAG-tag) (enzyme, UniProt B2RXA1 1-340)
chain: T1 sequence

- binding [3]: binds
- binding [4]: binds
B3: PLCXD2-NFAST (full-length mouse PLCXD2 with a C-terminal FLAG-tag and NFAST-tag) (enzyme, UniProt B2RXA1 1-340)
chain: T1 sequence
